Reference: paper PMC4451243
These are yes or no findings as the source states them, for the method shown. Binding seen in cells or lysates may run through a third protein. Some entries that bind do so weakly or less than the wild type. Tags and fused reporters may be left off the sequences shown.

By UniProt entry, the sequences of proteins in these tests, tags left out.
UniProt Q03468: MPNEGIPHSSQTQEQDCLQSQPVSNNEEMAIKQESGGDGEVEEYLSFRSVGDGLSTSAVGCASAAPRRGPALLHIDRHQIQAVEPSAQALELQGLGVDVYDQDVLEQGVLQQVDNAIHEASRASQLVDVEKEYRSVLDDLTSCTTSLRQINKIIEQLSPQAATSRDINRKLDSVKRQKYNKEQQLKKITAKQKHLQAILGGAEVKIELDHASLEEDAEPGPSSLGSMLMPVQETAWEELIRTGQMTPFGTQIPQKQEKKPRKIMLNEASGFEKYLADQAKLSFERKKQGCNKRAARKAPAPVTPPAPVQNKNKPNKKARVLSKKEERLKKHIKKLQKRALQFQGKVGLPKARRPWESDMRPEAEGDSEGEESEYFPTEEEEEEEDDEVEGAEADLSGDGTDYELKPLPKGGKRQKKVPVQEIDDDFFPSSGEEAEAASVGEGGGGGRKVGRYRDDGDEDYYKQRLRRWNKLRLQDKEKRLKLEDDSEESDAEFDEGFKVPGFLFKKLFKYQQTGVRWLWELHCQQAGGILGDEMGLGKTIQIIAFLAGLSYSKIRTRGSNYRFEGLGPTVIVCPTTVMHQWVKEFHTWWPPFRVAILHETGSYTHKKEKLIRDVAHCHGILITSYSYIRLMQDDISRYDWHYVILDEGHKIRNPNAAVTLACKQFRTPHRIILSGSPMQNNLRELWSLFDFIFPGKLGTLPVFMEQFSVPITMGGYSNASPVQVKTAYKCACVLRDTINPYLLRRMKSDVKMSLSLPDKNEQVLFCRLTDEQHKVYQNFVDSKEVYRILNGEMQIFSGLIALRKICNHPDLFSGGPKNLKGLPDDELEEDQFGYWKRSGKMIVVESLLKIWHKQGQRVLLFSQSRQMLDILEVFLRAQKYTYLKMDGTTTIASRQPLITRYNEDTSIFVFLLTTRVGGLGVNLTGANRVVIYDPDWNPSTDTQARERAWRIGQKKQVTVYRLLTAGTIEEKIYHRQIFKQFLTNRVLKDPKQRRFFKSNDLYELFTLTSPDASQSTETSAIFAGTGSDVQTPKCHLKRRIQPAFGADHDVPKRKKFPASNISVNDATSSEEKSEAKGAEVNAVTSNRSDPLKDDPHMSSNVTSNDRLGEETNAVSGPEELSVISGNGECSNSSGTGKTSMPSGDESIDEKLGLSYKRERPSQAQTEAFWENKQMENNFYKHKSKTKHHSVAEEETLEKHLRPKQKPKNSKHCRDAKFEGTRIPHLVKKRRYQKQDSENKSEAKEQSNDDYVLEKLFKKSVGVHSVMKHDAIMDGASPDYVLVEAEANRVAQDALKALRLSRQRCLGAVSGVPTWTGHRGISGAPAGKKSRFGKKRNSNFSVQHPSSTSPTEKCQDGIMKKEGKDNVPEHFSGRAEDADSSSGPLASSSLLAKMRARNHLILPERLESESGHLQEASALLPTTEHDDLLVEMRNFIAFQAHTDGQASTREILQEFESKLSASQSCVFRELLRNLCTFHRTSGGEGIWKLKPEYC

Target: Flag-tagged CSB (human) (UniProt Q03468)
Assay: co-IP; lysates (RIPA buffer) of CSIAN cells co-transfected with Flag-tagged CSB and a Myc-tagged protein, 24 hr post transfection; anti-Flag M2-agarose overnight; Western blot with anti-Myc

Row | binding | Binder
1 | binds | Myc-tagged CSTF1 (protein, UniProt Q05048 1-431) MYRTKVGLKDRQQLYKLIISQLLYDGYISIANGLINEIKPQSVCAPSEQLLHLIKLGMENDDTAVQYAIGRSDTVAPGTGIDLEFDADVQTMSPEASEYETCYVTSHKGPCRVATYSRDGQLIATGSADASIKILDTERMLAKSAMPIEVMMNETAQQNMENHPVIRTLYDHVDEVTCLAFHPTEQILASGSRDYTLKLFDYSKPSAKRAFKYIQEAEMLRSISFHPSGDFILVGTQHPTLRLYDINTFQCFVSCNPQDQHTDAICSVNYNSSANMYVTGSKDGCIKLWDGVSNRCITTFEKAHDGAEVCSAIFSKNSKYILSSGKDSVAKLWEISTGRTLVRYTGAGLSGRQVHRTQAVFNHTEDYVLLPDERTISLCCWDSRTAERRNLLSLGHNNIVRCIVHSPTNPGFMTCSDDFRARFWYRRSTTD
2 | binds | Myc-tagged DDX23 (protein, UniProt Q9BUQ8 1-820) MAGELADKKDRDASPSKEERKRSRTPDRERDRDRDRKSSPSKDRKRHRSRDRRRGGSRSRSRSRSKSAERERRHKERERDKERDRNKKDRDRDKDGHRRDKDRKRSSLSPGRGKDFKSRKDRDSKKDEEDEHGDKKPKAQPLSLEELLAKKKAEEEAEAKPKFLSKAEREAEALKRRQQEVEERQRMLEEERKKRKQFQDLGRKMLEDPQERERRERRERMERETNGNEDEEGRQKIREEKDKSKELHAIKERYLGGIKKRRRTRHLNDRKFVFEWDASEDTSIDYNPLYKERHQVQLLGRGFIAGIDLKQQKREQSRFYGDLMEKRRTLEEKEQEEARLRKLRKKEAKQRWDDRHWSQKKLDEMTDRDWRIFREDYSITTKGGKIPNPIRSWKDSSLPPHILEVIDKCGYKEPTPIQRQAIPIGLQNRDIIGVAETGSGKTAAFLIPLLVWITTLPKIDRIEESDQGPYAIILAPTRELAQQIEEETIKFGKPLGIRTVAVIGGISREDQGFRLRMGCEIVIATPGRLIDVLENRYLVLSRCTYVVLDEADRMIDMGFEPDVQKILEHMPVSNQKPDTDEAEDPEKMLANFESGKHKYRQTVMFTATMPPAVERLARSYLRRPAVVYIGSAGKPHERVEQKVFLMSESEKRKKLLAILEQGFDPPIIIFVNQKKGCDVLAKSLEKMGYNACTLHGGKGQEQREFALSNLKAGAKDILVATDVAGRGIDIQDVSMVVNYDMAKNIEDYIHRIGRTGRAGKSGVAITFLTKEDSAVFYELKQAILESPVSSCPPELANHPDAQHKPGTILTKKRREETIFA
3 | binds | Myc-tagged PRPF3 (protein, UniProt O43395 1-683) MALSKRELDELKPWIEKTVKRVLGFSEPTVVTAALNCVGKGMDKKKAADHLKPFLDDSTLRFVDKLFEAVEEGRSSRHSKSSSDRSRKRELKEVFGDDSEISKESSGVKKRRIPRFEEVEEEPEVIPGPPSESPGMLTKLQIKQMMEAATRQIEERKKQLSFISPPTPQPKTPSSSQPERLPIGNTIQPSQAATFMNDAIEKARKAAELQARIQAQLALKPGLIGNANMVGLANLHAMGIAPPKVELKDQTKPTPLILDEQGRTVDATGKEIELTHRMPTLKANIRAVKREQFKQQLKEKPSEDMESNTFFDPRVSIAPSQRQRRTFKFHDKGKFEKIAQRLRTKAQLEKLQAEISQAARKTGIHTSTRLALIAPKKELKEGDIPEIEWWDSYIIPNGFDLTEENPKREDYFGITNLVEHPAQLNPPVDNDTPVTLGVYLTKKEQKKLRRQTRREAQKELQEKVRLGLMPPPEPKVRISNLMRVLGTEAVQDPTKVEAHVRAQMAKRQKAHEEANAARKLTAEQRKVKKIKKLKEDISQGVHISVYRVRNLSNPAKKFKIEANAGQLYLTGVVVLHKDVNVVVVEGGPKAQKKFKRLMLHRIKWDEQTSNTKGDDDEESDEEAVKKTNKCVLVWEGTAKDRSFGEMKFKQCPTENMAREHFKKHGAEHYWDLALSESVLESTD
